Earlier results on one compound are cited in paper PMC4965013, “Open Source Drug Discovery with the Malaria Box Compound Collection for Neglected Diseases and Beyond” (PLoS Pathogens, 2016).

Values joined by “and” are separate entries in the source; they are usually repeats but may differ in a detail not shown here. Equal values may be shown once.

In this data set the test system is T. cruzi Tulahuen. The following applies: Run 1 and Run 2; ref [88]; read-out: T. cruzi IC50 positive control; cited from earlier work.

As for `O=C(Cn1ccnc1[N+](=O)[O-])NCc1ccccc1` [Benznidazole, reference compound], the IC50 was 3.22 µM and 3.06 µM.

As a reminder, the IC50 is the concentration that gives 50% inhibition.
